# From publication PMC7797639
# No constants are given. Whether binding was seen depends on the method and setting. Binding seen in cells or lysates may run through a third protein. Some results given as binding are weak or reduced against the parent protein; the word gives no strength.
# Target: T1, JMJD8 (human (endogenous in A549 and H1299)) (UniProt Q96S16)
# T1 sequence: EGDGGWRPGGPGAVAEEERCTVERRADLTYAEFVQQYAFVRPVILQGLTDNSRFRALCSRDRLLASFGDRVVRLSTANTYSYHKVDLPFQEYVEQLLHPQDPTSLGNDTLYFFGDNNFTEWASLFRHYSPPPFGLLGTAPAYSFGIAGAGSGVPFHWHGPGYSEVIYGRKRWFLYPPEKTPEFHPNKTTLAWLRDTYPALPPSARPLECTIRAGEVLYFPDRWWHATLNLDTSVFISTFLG
# Assay: co-IP; endogenous proteins; A549 and H1299 lysate (200 ug protein) incubated overnight at 4 °C with 10 ug anti-JMJD8 or anti-IgG, protein A/G agarose beads, washed three times with RIPA buffer, blotted
substance,measurement,value
Epidermal growth factor receptor (from UniProt P00533 25-1210),binding,binds
